Experimental findings from PMC6473003 are described below.

For this assay, the target named is T1, Myc-TRIM56 (UniProt Q9BRZ2).
T1 sequence: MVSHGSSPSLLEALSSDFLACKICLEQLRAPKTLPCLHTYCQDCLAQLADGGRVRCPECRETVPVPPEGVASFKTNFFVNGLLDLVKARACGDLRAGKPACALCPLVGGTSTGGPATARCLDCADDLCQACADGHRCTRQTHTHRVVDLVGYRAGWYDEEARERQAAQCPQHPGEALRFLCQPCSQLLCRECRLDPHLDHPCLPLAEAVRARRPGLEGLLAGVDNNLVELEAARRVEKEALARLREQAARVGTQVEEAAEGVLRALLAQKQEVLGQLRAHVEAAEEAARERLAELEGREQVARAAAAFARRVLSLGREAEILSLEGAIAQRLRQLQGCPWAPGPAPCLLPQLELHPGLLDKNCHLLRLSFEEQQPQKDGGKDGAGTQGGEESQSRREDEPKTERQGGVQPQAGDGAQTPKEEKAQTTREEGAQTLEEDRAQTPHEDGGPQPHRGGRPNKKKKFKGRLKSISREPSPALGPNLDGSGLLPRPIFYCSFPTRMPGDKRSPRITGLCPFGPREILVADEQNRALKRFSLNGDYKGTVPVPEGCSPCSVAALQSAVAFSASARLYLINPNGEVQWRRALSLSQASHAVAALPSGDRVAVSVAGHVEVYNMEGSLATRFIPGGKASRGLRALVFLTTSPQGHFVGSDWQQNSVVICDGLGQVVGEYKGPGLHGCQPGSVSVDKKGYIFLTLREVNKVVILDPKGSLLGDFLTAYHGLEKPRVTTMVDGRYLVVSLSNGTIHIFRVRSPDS
The assay is described as follows: co-IP; HEK293 cells transfected with Myc-TRIM56 and HA-ER alpha full length or mutants, NP-40 lysis buffer after 24 h, IP with Myc antibody, blot with HA antibody.

These are yes or no findings as the source states them, for the method shown. In cells and extracts the contact can be indirect. Binding can be weak; no strength is given. Where a sequence is shown, tags or fusion partners need not be part of it.

Turning to “HA-ER alpha ΔAF2 (human) (domain or fragment)”, the binding entry is recorded as “binds”.
Under “HA-ER alpha ΔAF2+ΔDBD (human) (domain or fragment)” stands “binds”.
